Experimental findings from paper PMC7463958 are described below.

The chains behind the UniProt entries cited, without tags or fusion partners. Residues count along the entry.
UniProt P28360: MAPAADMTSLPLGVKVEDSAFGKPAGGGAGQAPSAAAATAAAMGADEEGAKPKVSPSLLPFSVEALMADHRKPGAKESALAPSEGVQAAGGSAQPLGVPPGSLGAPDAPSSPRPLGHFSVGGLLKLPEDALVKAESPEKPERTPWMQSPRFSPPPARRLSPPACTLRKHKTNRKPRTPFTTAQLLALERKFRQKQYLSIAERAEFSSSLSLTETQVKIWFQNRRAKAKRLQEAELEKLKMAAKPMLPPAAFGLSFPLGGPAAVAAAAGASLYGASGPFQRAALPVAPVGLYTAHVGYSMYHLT
UniProt P13297: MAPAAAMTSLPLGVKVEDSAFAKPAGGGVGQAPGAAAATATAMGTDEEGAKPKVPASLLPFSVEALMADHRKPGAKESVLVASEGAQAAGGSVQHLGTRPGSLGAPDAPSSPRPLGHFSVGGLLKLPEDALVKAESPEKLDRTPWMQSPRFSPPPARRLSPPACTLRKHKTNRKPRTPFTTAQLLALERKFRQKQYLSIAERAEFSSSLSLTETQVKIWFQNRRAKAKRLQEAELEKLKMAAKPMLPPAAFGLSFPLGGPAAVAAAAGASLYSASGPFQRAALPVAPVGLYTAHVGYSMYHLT
UniProt P35968, residues 20-1356: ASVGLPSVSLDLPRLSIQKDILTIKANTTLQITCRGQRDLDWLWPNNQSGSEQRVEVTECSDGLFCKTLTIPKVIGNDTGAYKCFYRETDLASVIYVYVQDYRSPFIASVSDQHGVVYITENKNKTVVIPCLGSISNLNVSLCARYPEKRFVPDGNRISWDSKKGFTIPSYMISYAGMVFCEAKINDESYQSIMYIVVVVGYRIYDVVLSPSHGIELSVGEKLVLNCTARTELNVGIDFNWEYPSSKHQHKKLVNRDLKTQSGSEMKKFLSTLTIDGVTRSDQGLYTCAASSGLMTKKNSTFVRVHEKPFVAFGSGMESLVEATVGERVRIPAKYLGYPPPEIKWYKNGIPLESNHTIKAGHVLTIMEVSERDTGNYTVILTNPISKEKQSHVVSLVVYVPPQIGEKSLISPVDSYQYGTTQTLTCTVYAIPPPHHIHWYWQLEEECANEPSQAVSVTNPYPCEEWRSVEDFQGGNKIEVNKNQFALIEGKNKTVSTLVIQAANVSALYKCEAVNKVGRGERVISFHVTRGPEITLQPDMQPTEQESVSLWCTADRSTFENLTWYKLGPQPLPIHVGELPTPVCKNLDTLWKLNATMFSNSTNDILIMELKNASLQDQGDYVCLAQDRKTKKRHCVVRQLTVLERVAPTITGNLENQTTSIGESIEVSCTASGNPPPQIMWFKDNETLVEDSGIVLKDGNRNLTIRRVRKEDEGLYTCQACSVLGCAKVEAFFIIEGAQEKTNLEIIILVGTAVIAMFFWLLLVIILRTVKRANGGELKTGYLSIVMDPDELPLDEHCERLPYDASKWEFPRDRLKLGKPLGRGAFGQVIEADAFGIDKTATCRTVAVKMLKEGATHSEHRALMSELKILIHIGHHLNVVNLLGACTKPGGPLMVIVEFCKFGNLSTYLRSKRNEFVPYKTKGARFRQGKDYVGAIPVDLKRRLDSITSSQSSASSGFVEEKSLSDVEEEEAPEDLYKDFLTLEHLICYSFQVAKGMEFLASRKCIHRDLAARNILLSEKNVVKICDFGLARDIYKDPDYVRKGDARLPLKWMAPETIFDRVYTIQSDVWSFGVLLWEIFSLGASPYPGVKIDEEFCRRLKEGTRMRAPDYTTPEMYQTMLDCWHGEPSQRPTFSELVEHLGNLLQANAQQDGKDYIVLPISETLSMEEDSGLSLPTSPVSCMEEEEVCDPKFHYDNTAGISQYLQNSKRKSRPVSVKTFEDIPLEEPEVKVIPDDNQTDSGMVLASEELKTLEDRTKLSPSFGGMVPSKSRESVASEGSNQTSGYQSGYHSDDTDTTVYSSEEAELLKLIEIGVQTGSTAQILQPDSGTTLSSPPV
UniProt P17948, residues 27-1338: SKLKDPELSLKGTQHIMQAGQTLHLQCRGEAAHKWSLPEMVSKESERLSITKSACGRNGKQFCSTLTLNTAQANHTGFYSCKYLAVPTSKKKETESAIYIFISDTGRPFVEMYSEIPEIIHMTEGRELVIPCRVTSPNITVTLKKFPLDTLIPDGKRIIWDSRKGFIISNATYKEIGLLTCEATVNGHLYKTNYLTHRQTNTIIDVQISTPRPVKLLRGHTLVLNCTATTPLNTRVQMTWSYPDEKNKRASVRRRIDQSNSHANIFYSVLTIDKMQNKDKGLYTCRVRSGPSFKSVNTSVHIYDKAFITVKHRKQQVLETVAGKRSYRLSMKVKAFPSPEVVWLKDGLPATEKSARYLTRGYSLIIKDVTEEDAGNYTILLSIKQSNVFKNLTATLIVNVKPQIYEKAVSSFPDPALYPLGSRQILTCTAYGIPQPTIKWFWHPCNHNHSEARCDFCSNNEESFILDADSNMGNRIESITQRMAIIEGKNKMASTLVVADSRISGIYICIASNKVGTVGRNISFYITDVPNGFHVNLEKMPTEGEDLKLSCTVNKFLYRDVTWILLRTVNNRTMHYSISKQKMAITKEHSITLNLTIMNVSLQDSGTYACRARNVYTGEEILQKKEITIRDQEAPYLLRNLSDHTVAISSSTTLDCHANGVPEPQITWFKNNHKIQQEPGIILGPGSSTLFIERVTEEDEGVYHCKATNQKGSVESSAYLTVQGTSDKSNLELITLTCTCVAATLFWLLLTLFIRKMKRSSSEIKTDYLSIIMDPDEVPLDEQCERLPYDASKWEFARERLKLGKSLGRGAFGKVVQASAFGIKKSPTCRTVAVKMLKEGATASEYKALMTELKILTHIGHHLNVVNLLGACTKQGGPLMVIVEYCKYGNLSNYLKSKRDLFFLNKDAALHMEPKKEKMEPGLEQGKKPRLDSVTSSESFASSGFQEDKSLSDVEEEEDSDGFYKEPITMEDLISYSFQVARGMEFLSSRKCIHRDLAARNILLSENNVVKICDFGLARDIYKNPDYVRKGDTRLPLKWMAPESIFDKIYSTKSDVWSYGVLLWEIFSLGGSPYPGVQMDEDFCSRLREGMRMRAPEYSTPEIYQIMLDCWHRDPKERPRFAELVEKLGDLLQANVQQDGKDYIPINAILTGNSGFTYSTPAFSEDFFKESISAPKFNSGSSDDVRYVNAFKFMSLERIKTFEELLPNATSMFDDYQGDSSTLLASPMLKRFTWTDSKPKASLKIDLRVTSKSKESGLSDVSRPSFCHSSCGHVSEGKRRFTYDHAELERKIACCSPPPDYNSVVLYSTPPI

These are yes or no findings as the source states them, for the method shown. In cells and extracts the contact can be indirect. Some entries that bind do so weakly or less than the wild type. For part of these data: Where a sequence is shown, tags or fusion partners need not be part of it.

Assay [1] has as its target Flag-Msx1 (human Msx1-expression construct, full-length Msx1 cDNA in the 3x-Flag vector) (human) (UniProt P28360). In words: co-IP; 293T cells transfected with Flag-Msx1 and pcDNA-VEGFR1 or pcDNA-VEGFR2; whole cell lysates; immunoprecipitation with anti-Flag, immunoblot with anti-VEGFR1 or anti-VEGFR2 antibody.
In assay [2] the target is Msx1 expressed from the adenovirus vector Ad-Msx1 (full-length mouse Msx1 cDNA) (mouse) (UniProt P13297). Briefly: co-IP; HEK 293 cells infected with Ad-Msx1 and transiently transfected with Flag-PIASy; RIPA lysates; immunoprecipitation with anti-Msx1 antibody, immunoblot with anti-Flag antibody. For orientation: In western blotting, separated proteins are transferred to a membrane and probed.

For the molecule “VEGFR2 expressed from pcDNA-VEGFR2 (from UniProt P35968 20-1356) (receptor)”, the binding result in assay [1] was “binds”.

“VEGFR1 expressed from pcDNA-VEGFR1 (from UniProt P17948 27-1338) (receptor)”: the binding result in assay [1] is “no binding”.

B1: Flag-PIASy harboring a full-length PIASy (protein, UniProt Q8N2W9 1-510)
chain: MAAELVEAKNMVMSFRVSDLQMLLGFVGRSKSGLKHELVTRALQLVQFDCSPELFKKIKELYETRYAKKNSEPAPQPHRPLDPLTMHSTYDRAGAVPRTPLAGPNIDYPVLYGKYLNGLGRLPAKTLKPEVRLVKLPFFNMLDELLKPTELVPQNNEKLQESPCIFALTPRQVELIRNSRELQPGVKAVQVVLRICYSDTSCPQEDQYPPNIAVKVNHSYCSVPGYYPSNKPGVEPKRPCRPINLTHLMYLSSATNRITVTWGNYGKSYSVALYLVRQLTSSELLQRLKTIGVKHPELCKALVKEKLRLDPDSEIATTGVRVSLICPLVKMRLSVPCRAETCAHLQCFDAVFYLQMNEKKPTWMCPVCDKPAPYDQLIIDGLLSKILSECEDADEIEYLVDGSWCPIRAEKERSCSPQGAILVLGPSDANGLLPAPSVNGSGALGSTGGGGPVGSMENGKPGADVVDLTLDSSSSSEDEEEEEEEEEDEDEEGPRPKRRCPFQKGLVPAC
For the molecule B1, in assay [2], the binding entry is on record as “binds”.
